The exact form of at least one protein or probe is not confirmed. At least one result comes from cells or an extract, where the contact may be indirect.
Key:
[1] = test system: FIZ1 (Flt3-interacting zinc finger 1), in retinal nuclear complex + CRX (cone-rod homeobox); experiment: EMSA, antibody removal of band; conditions: bovine retina nuclear extract, 20 mM Tris-HCl pH 7.5, 100 mM NaCl, 2 mM MgCl2, 1 mM EDTA, 1 mM DTT, 1 ug poly-dI-dC, 8% glycerol, 21 C, 30 min, 20 fmol probe, 5 ug nuclear extract, protein in an extract, label: 5'-32P
[2] = test system: FIZ1 (Flt3-interacting zinc finger 1), in retinal nuclear complex + NRL (neural retina leucine zipper); experiment: EMSA, antibody removal of band; conditions: bovine retina nuclear extract, anti-bFIZ1 removed the higher complex, preimmune IgG did not, cold probe competed; 20 mM Tris-HCl pH 7.5, 100 mM NaCl, 2 mM MgCl2, 1 mM EDTA, 1 mM DTT, 1 ug poly-dI-dC, 8% glycerol, 21 C, 30 min; 20 fmol probe, 5 ug nuclear extract; protein in an extract; label: 5'-32P

Sequence: GGGAGCTTAGGGAGGGGAGG (double strand) [Ret-4 (CRX-binding element, Rhodopsin promoter)]
- binding result ([1]; anti-bFIZ1 removed the shifted band, preimmune IgG did not): binds

Sequence: GCAGCAGTGAGGATTAATATGATTAATAACG (double strand) [BAT-1 (CRX-binding element, Rhodopsin promoter)]
- binding result ([1]; anti-bFIZ1 abolished the third, highest band, two lower CRX bands unaffected): binds

Sequence: CAGATGCTGATTCAGCCAGGAGCT (double strand) [NRE (NRL-response element, Rhodopsin promoter)]
- binding result [2]: binds

— PMC2571102
